# The supplement of paper PMC8728848
# This is one part of the list.
# Legend:
# Test in all cases: glycan array binding signal (z-score within array); higher = stronger binding
# Settings in all cases: glycan notation: IUPAC condensed, linker removed
# [1] = molecular target: Neu5Ac(a2-8)Neu5Ac
# Method in brief: (§1)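 The Consortium for Functional Glycomics database supplied 3228 glycan arrays, of which those lacking an available protein sequence were dropped. The binding signal, a within-array Z-score, was averaged across arrays of the same protein sequence and across linkers. Negative scores can be read as non-binding.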
# [2] = molecular target: Neu5Ac(a2-8)Neu5Ac(a2-3)Gal(b1-3)GalNAc(b1-4)[Neu5Ac(a2-3)]Gal(b1-4)Glc
# Method in brief: as §1
# [3] = molecular target: Neu5Ac(a2-8)Neu5Ac(a2-3)Gal(b1-3)GalNAc(b1-4)[Neu5Ac(a2-8)Neu5Ac(a2-3)]Gal(b1-4)Glc
# Method in brief: as §1
# [4] = molecular target: Neu5Ac(a2-8)Neu5Ac(a2-3)Gal(b1-4)Glc
# Method in brief: as §1
# [5] = molecular target: Neu5Ac(a2-8)Neu5Ac(a2-3)Gal(b1-4)GlcNAc
# Method in brief: as §1
# [6] = molecular target: Neu5Ac(a2-8)Neu5Ac(a2-3)[Gal(b1-3)GalNAc(b1-4)]Gal(b1-4)Glc
# Method in brief: as §1
# [7] = molecular target: Neu5Ac(a2-8)Neu5Ac(a2-3)[GalNAc(b1-4)]Gal(b1-4)Glc
# Method in brief: as §1
# [8] = molecular target: Neu5Ac(a2-8)Neu5Ac(a2-8)Neu5Ac
# Method in brief: as §1
# [9] = molecular target: Neu5Ac(a2-8)Neu5Ac(a2-8)Neu5Ac(a2-3)Gal(b1-4)Glc
# Method in brief: as §1
# [10] = molecular target: Neu5Ac(a2-8)Neu5Ac(a2-8)Neu5Ac(a2-3)[Gal(b1-3)GalNAc(b1-4)]Gal(b1-4)Glc
# Method in brief: as §1
# [11] = molecular target: Neu5Ac(a2-8)Neu5Ac(a2-8)Neu5Ac(a2-3)[GalNAc(b1-4)]Gal(b1-4)Glc
# Method in brief: as §1
# [12] = molecular target: Neu5Ac(a2-8)Neu5Ac(a2-8)Neu5Ac(a2-8)Neu5Ac(a2-3)[GalNAc(b1-4)]Gal(b1-4)Glc
# Method in brief: as §1
# [13] = molecular target: Neu5Ac(a2-8)Neu5Gc(a2-3)Gal(b1-4)GlcNAc
# Method in brief: as §1
# [14] = molecular target: Neu5Ac(b2-6)Gal(b1-4)GlcNAc
# Method in brief: as §1
# [15] = molecular target: Neu5Ac(b2-6)GalNAc
# Method in brief: as §1
# [16] = molecular target: Neu5Ac9Ac(a2-3)Gal(b1-3)GlcNAc
# Method in brief: as §1
# [17] = molecular target: Neu5Ac9Ac(a2-3)Gal(b1-4)GlcNAc
# Method in brief: as §1
# [18] = molecular target: Neu5Ac9Ac(a2-6)Gal(b1-4)GlcNAc
# Method in brief: as §1
# [19] = molecular target: Neu5Gc(a2-3)Gal(b1-3)GlcNAc
# Method in brief: as §1
# [20] = molecular target: Neu5Gc(a2-3)Gal(b1-3)[Fuc(a1-4)]GlcNAc
# Method in brief: as §1
# [21] = molecular target: Neu5Gc(a2-3)Gal(b1-4)Glc
# Method in brief: as §1
# [22] = molecular target: Neu5Gc(a2-3)Gal(b1-4)GlcNAc
# Method in brief: as §1
# [23] = molecular target: Neu5Gc(a2-3)Gal(b1-4)GlcNAc(b1-3)Gal(b1-4)GlcNAc(b1-2)Man(a1-3)[Neu5Gc(a2-3)Gal(b1-4)GlcNAc(b1-3)Gal(b1-4)GlcNAc(b1-2)Man(a1-6)]Man(b1-4)GlcNAc(b1-4)GlcNAc
# Method in brief: as §1
# [24] = molecular target: Neu5Gc(a2-3)Gal(b1-4)[Fuc(a1-3)]GlcNAc
# Method in brief: as §1
# [25] = molecular target: Neu5Gc(a2-6)Gal(b1-4)GlcNAc
# Method in brief: as §1
# [26] = molecular target: Neu5Gc(a2-6)GalNAc
# Method in brief: as §1
# [27] = molecular target: Neu5Gc(a2-8)Neu5Ac(a2-3)Gal(b1-4)GlcNAc
# Method in brief: as §1
# [28] = molecular target: Neu5Gc(a2-8)Neu5Gc(a2-3)Gal(b1-4)GlcNAc
# Method in brief: as §1
# [29] = molecular target: Neu5Gc(a2-8)Neu5Gc(a2-3)Gal(b1-4)GlcNAc(b1-3)Gal(b1-4)GlcNAc
# Method in brief: as §1
# [30] = molecular target: Neu5Gc(a2-8)Neu5Gc(a2-6)Gal(b1-4)GlcNAc
# Method in brief: as §1
# [31] = molecular target: Neu5Gc(b2-6)Gal(b1-4)GlcNAc
# Method in brief: as §1
binder,measurement,setting,value
PX14343C-bfa-541-26-541 (Bacteroides fragilis) (protein) KAPLDEIADDSFWSDETLVKYYVNDLYSEISVDGLQLQENRSDNSVSAQRDKYRASWFKFNYDMVSASDPQDDDVWEDYYVKVRKCNRFFERIGTSTIEESEKSRLTGEVHFLRAMFYFEMVKRYGGVILLDKVLTMEDNWEIPRSSEKECYDFILEDLKKATEMLPASYGSREKGRATKGAAYALKSRVELYDKRYEDVIKSCAEVYKLGYELVDGTTPEKYRSIWWTTNKDNKEIIFDVQYKSPDVYNNMMVCNMVTYINDKYGDRGWGGLGPTQELIDAFEMADGTPATQYSQAPADQVFDINTCGIYEGREPRFYANIVFHGSQIFFNADKGAVTVDRYLMDTPDKGDGSLTGYNVWKWIDYDNYNYPYAGAGSPDFSTNWIILRYAEIYLNDAEARLETGDVEGARKAVNMIRQRVGLPDLTESDPEKLRELIRKERRIEFAFEEQRFYDVRRWKIGPETQTTLHGVRFVSPTEFKVTKTDIRTWNDRLYLTPVPHDEIVRSSVLKQNLGY,glycan array binding signal (z-score),[1],-0.451
same,glycan array binding signal (z-score),[2],-0.491
same,glycan array binding signal (z-score),[3],-0.267
same,glycan array binding signal (z-score),[4],-1.29
same,glycan array binding signal (z-score),[5],-1.16
same,glycan array binding signal (z-score),[6],-0.215
same,glycan array binding signal (z-score),[7],-0.488
same,glycan array binding signal (z-score),[8],-0.546
same,glycan array binding signal (z-score),[9],-0.275
same,glycan array binding signal (z-score),[10],0.045
same,glycan array binding signal (z-score),[11],-1.05
same,glycan array binding signal (z-score),[12],1.9
same,glycan array binding signal (z-score),[13],-0.49
same,glycan array binding signal (z-score),[14],-0.351
same,glycan array binding signal (z-score),[15],-0.477
same,glycan array binding signal (z-score),[16],-0.209
same,glycan array binding signal (z-score),[17],-0.332
same,glycan array binding signal (z-score),[18],0.204
same,glycan array binding signal (z-score),[19],0.179
same,glycan array binding signal (z-score),[20],0.036
same,glycan array binding signal (z-score),[21],-0.166
same,glycan array binding signal (z-score),[22],0.294
same,glycan array binding signal (z-score),[23],-0.793
same,glycan array binding signal (z-score),[24],-0.364
same,glycan array binding signal (z-score),[25],-0.535
same,glycan array binding signal (z-score),[26],-0.165
same,glycan array binding signal (z-score),[27],0.105
same,glycan array binding signal (z-score),[28],-0.342
same,glycan array binding signal (z-score),[29],-0.366
same,glycan array binding signal (z-score),[30],0.394
same,glycan array binding signal (z-score),[31],0.692

# An excerpt of these results, with tabs.
binder	measurement	setting	value
PX14343C-bfa-541-26-541 (Bacteroides fragilis) (protein) KAPLDEIADDSFWSDETLVKYYVNDLYSEISVDGLQLQENRSDNSVSAQRDKYRASWFKFNYDMVSASDPQDDDVWEDYYVKVRKCNRFFERIGTSTIEESEKSRLTGEVHFLRAMFYFEMVKRYGGVILLDKVLTMEDNWEIPRSSEKECYDFILEDLKKATEMLPASYGSREKGRATKGAAYALKSRVELYDKRYEDVIKSCAEVYKLGYELVDGTTPEKYRSIWWTTNKDNKEIIFDVQYKSPDVYNNMMVCNMVTYINDKYGDRGWGGLGPTQELIDAFEMADGTPATQYSQAPADQVFDINTCGIYEGREPRFYANIVFHGSQIFFNADKGAVTVDRYLMDTPDKGDGSLTGYNVWKWIDYDNYNYPYAGAGSPDFSTNWIILRYAEIYLNDAEARLETGDVEGARKAVNMIRQRVGLPDLTESDPEKLRELIRKERRIEFAFEEQRFYDVRRWKIGPETQTTLHGVRFVSPTEFKVTKTDIRTWNDRLYLTPVPHDEIVRSSVLKQNLGY	glycan array binding signal (z-score)	[6]	-0.215
same	glycan array binding signal (z-score)	[12]	1.9
